These are yes or no findings as the source states them, for the method shown. Binding seen in cells or lysates may run through a third protein. Where a sequence is shown, tags or fusion partners need not be part of it.

This test concerns the target Flag-tagged pLORF1 (MDV-1 Md5 LORF1 gene product) (Marek's disease virus serotype 1 (MDV-1, Gallid herpesvirus 2), strain Md5). The test can be described thus: co-IP; 293T cells co-transfected with Flag-tagged pLORF1 and HA-tagged HSV-1 proteins or EBV BGLF2 for 36 hours; whole cell lysates (50 mM Tris-HCl pH 7.5, 150 mM NaCl, 1 mM EDTA, 0.5% NP-40) precipitated with anti-Flag antibody and protein A/G magnetic beads, 4 hours at 4°C; control mouse IgG; blots with anti-Flag and anti-HA.

B1: HA-tagged EBV tegument protein BGLF2 (protein, UniProt P0CK53 1-336)
chain: MASAANSSREQLRKFLNKECLWVLSDASTPQMKVYTATTAVSAVYVPQIAGPPKTYMNVTLIVLKPKKKPTYVTVYINGTLATVARPEVLFTKAVQGPHSLTLMYFGVFSDAVGEAVPVEIRGNPVVTCTDLTTAHVFTTSTAVKTVEELQDITPSEIIPLGRGGAWYAEGALYMFFVNMDMLMCCPNMPTFPSLTHFINLLTRCDNGECVTCYGAGAHVNILRGWTEDDSPGTSGTCPCLLPCTALNNDYVPITGHRALLGLMFKPEDAPFVVGLRFNPPKMHPDMSRVLQGVLANGKEVPCTAQPWTLLRFSDLYSRAMLYNCQVLKRQVLHSY
B1: the binding result was “no binding”.

For the origin of these results see paper PMC11790089.
